# Target: T1, rat CB1 (Rattus norvegicus, UniProt P20272)
# Amino acid sequences for entries named in this document (tags omitted).
# UniProt P20272, whole entry: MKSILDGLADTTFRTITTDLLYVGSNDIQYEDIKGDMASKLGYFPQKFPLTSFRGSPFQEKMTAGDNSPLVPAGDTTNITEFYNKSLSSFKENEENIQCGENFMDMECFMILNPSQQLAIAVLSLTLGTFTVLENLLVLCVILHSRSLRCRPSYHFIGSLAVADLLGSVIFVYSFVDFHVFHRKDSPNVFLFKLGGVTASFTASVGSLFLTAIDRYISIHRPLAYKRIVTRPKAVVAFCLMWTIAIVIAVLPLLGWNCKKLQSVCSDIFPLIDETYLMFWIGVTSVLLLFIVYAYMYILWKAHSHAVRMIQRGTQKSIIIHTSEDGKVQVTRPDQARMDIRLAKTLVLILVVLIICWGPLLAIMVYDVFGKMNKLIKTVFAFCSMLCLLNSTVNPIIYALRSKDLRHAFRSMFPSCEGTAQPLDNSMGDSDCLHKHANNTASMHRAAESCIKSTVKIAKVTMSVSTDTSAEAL
# T1 construct: expressed in transfected cells; host or cells: HEK293s, transient transfection; membranes prepared
# Assay: [35S]-GTPγS binding, membranes of HEK293s cells transfected with rat CB1
# Format: biochemical
# Details: antagonist mode, vs EC80 concentration of CP55940; mean ± SEM; read-out: CB1 EC50, Rat (ligand behaved as an antagonist)
# Experimental: Antagonist assays were performed similarly, with the addition of an EC80 concentration of CP55940 as a nonselective CB1/CB2 agonist in conjunction with the ligand to be tested. Nonspecific binding was determined in the presence of 20 μmol/L unlabeled GTPγS. The reaction was terminated by addition of ice-cold wash buffer (50 mmol/L Tris-HCl, 5 mmol/L MgCl2, 50 mmol/L NaCl; pH 7.4) followed by rapid filtration under vacuum through 96-well B-glass fiber filter plates (PerkinElmer, Waltham, Massachusetts, USA) using a Biomek FX (Beckman Coulter, Bromma, Sweden). The filter plates were dried (30 min at 50°C) before scintillation liquid (PerkinElmer) was added onto the filters and the bound radioactivity was determined using a scintillation counter (Wallac). Data were fitted with a four-parameter logistic fit using the equation y = A + (B − A)/1 + ((C/x)^D), where A is no activation, B is full activation, C is the EC50, and D is the Hill slope. All data were based on at least three independent experiments.
structure (smiles),measurement,value
"Cc1c(C(=O)NN2CCCCC2)nn(-c2ccc(Cl)cc2Cl)c1-c1ccc(I)cc1 [AM251, 1-(2,4-dichlorophenyl)-5-(4-iodophenyl)-4-methyl-N-(piperidin-1-yl)-1H-pyrazole-3-carboxamide]",EC50,0.026 ± 0.008 µM
